Measured values taken from US20240238237A1, “CONJUGATED LINOLEIC ACID SUPPLEMENTATION FOR DISEASE TREATMENT” (VIRGINIA TECH INTELLECTUAL PROPERTIES, INC., priority 2021, published 2024).

Legend:
[1] = tested on: WT, PWS (Snord116m+/p−) and PWS-KO (Snord116m−/p−) mice; assay: Weekly body weight, fat and lean mass (NMR), rectal temperature and food intake, Example 1; format: in vivo, mouse
Description: All animal protocols were approved by the Institutional Animal Care and Use Commit-tee at Virginia Tech. Mice with the Snord116 paternal deletion (B6[Cg]-Snord116tm1.1Uta/J Stock No: 008149|1-loxp (KO), Snord116del) were obtained from Jackson Laboratories and maintained on a C57Bl/6 background. Genotyping and breeding were performed as reported. WT mice for the study were siblings of either the PWS (Snord116m+/p−) or PWS-KO (Snord116m−/p−) mice. PWS mice were generated by crossing WT females and male mice who were Snord116m−/p+. Breeder males (Snord116m−/p+) were generated in separate crosses to inherited their deleted allele from a maternal chromosome so that they were considered phenotypically normal in regards to Snord116 expression. PWS-KO (Snord116m−/p−) mice were generated by using non-sibling male and female mice of the genotype Snord116m−/p+ who had inherited their deleted allele maternally. In this type of mating, 50% of the offspring would be heterozygous (and never used for mating or the study, as the origin of their deleted allele could not be determined), and 25% each would have WT alleles or would be PWS-KO. Mice were housed at room temperature at about 22° C. with 12 h light/dark cycles at 7 a.m. and 7 p.m. and ad-libitum access to food (4.5% crude fat) and water. Mice were weaned at 3 weeks old, genotyped using an ear snip, […]. ear tagged, and housed with littermates of the same sex. For tissue dissection, mice were euthanized by CO2 asphyxiation between 12 p.m. and 2 p.m.
Body weight, fat, and lean mass, rectal temperature, and food intake were measured weekly. For body weight, fat, and lean mass measurements, mice were weighed on Mondays using a standard scale, and then placed in a Bruker (Billrica, MA, USA) LF90 NMR machine using the mouse holder. Measurements were recorded in grams for fat and lean mass.
All values were expressed as mean+SEM unless indicated otherwise. […] For the responses of weight, fat, lean mass, temperature, and food intake shown in figures, a fitted least squares regression with effects of genotype, treatment, and genotype×treatment was analyzed for Week 12 data only. Responses of these dependent variables were also analyzed across the 12-week time period, adding in effects of week, week×treatment, and week×genotype. […] The responses that had pre-post measures (wheel running, elevated plus, fasting glucose, glucose tolerance) were analyzed separately for the pre and post time periods (no effect of time). […] Rotarod data were collected only during the post-period and analyzed with a response of time and effects of genotype, treatment, and genotype×treatment. […]

[2] = tested on: WT, PWS (Snord116m+/p−) and PWS-KO (Snord116m−/p−) mice; assay: Indirect calorimetry and home-cage activity (TSE system); format: in vivo, mouse
Description: Indirect calorimetry and locomotor activity measurements were performed using a Labmaster Mouse calorimetry and Locomotor system (TSE Systems, Bad Homburg, Germany) in the Metabolism Core Virginia Tech. VO2 consumption and VCO2 production in individual mice were measured using metabolic chambers. Air going into the TSE system was at 20.9% oxygen, 0.05% CO2, and the airflow rate was 0.4 L/min (Airgas, Christiansburg, VA, USA). Data were collected every 15 min. Body composition was measured, as described above, prior to assessment of the animals using the TSE system. A photobeam-based ac-tivity monitoring system detected and recorded ambulatory movements. The results were used to calculate the respiratory exchange ratio (RER) and total energy expenditure/gram lean mass. Energy expenditure (KJ/h) was calculated using the formula VO2×(3.815+(1.232×RER))×4.1868 and normalized to the lean mass determined by NMR. All parameters were measured continuously and simultaneously for 48 h after approximately 20 h of adaptation for single-housed mice. The average values for the last 24-48 h were used for analysis. To calculate hourly activity, the average of two-hour bins of activity from the last 24 h period was plotted. […]

## conjugated linoleic acid [CLA]
[1]; all genotypes, entire study
  Food intake, effect of CLA diet: significantly increased food intake
[1]; all genotypes, entire study, CLA diet (control diet 16.48 g)
  Food intake: 17.18 g
[1]; end of study (Week 12)
  Food intake at Week 12, between treatments: no overall significant difference
[1]; whole study, all genotypes
  Body temperature, effect of treatment: significant effect of treatment; also recorded: dropped significantly
[2]; Week 12, N 4-7 per group
  Respiratory exchange ratio (VCO2/VO2): no significant effects
[2]; Week 12, all genotypes with CLA diet
  Energy expenditure per fat-free mass: slight but non-significant increases

“Also recorded” adds a separate entry of the source.
